Source: patent EP4541891A1 (Ichimaru Pharcos Co., Ltd., priority 2022, dated 2025)

Test: peptide made by a vendor (peptide synthesis; Trt(2-Cl)-Resin; HATU/DIEA)
Conditions: conjugation step
In the case of “DBCO-PEG5-Taz-PEG4-Gly-Thr-Pro-c(Cys-Thr-Tyr-Lys-Tyr-Nle-Leu-Ala-Glu-Nle-Cys)-OH (SEQ ID NO: 55)”, the “final purity (method not given)” value is reported as 95.0%.

Same assay, conditions: whole synthesis
For “Ac-K(5FAM)GTPCSYKY[Nle]LAE[Nle]C-OH (disulfide 5-15; SEQ ID NO: 17)”, the “final purity (method not given)” value was 95%. With “Ac-K(5FAM)GTPCTFKY[Nle]LAE[Nle]C-OH (disulfide 5-15; SEQ ID NO: 20)” the “final purity (method not given)” value was 97%. For “Ac-K(5FAM)GTPCTHKY[Nle]LAE[Nle]C-OH (disulfide 5-15; SEQ ID NO: 22)”, the “final purity (method not given)” value was 97%. For “Ac-K(5FAM)GTPCTWKY[Nle]LAE[Nle]C-OH (disulfide 5-15; SEQ ID NO: 21)”, the “final purity (method not given)” value was 95%. With “Ac-K(5FAM)GTPCTYKRRLAE[Nle]C-OH (disulfide 5-15; SEQ ID NO: 26)” the “final purity (method not given)” value was 96%. In the case of “Ac-K(5FAM)GTPCTYKYRLAE[Nle]C-OH (disulfide 5-15; SEQ ID NO: 27)”, the “final purity (method not given)” value is reported as 95%. For “Ac-K(5FAM)GTPCTYKY[Nle]IAE[Nle]C-OH (disulfide 5-15; SEQ ID NO: 29)”, the “final purity (method not given)” value was 95%. For “Ac-K(5FAM)GTPCTYKY[Nle]LAA[Nle]C-OH (disulfide 5-15; SEQ ID NO: 36)”, the “final purity (method not given)” value was 95%. With “Ac-K(5FAM)GTPCTYKY[Nle]LAD[Nle]C-OH (disulfide 5-15; SEQ ID NO: 35)” the “final purity (method not given)” value was 99%. With “Ac-K(5FAM)GTPCTYKY[Nle]LAEIC-OH (disulfide 5-15; SEQ ID NO: 40)” the “final purity (method not given)” value was 96%. With “Ac-K(5FAM)GTPCTYKY[Nle]LAELC-OH (disulfide 5-15; SEQ ID NO: 39)” the “final purity (method not given)” value was 88%. For “Ac-K(5FAM)GTPCTYKY[Nle]LAEVC-OH (disulfide 5-15; SEQ ID NO: 38)”, the “final purity (method not given)” value was 95%. In the case of “Ac-K(5FAM)GTPCTYKY[Nle]LAE[Nle]C-OH (disulfide 5-15; SEQ ID NO: 2)”, the “final purity (method not given)” value is reported as 95%. With “Ac-K(5FAM)GTPCTYKY[Nle]LAE[Nle]C-OH (disulfide 5-15; SEQ ID NO: 3)” the “final purity (method not given)” value was 100%. With “Ac-K(5FAM)GTPCTYKY[Nle]LAE[Nle]C-OH (disulfide 5-15; SEQ ID NO: 4)” the “final purity (method not given)” value was 90%. In the case of “Ac-K(5FAM)GTPCTYKY[Nle]LAE[Nle]PC-OH (disulfide 5-16; SEQ ID NO: 43)”, the “final purity (method not given)” value is reported as 95%. For “Ac-K(5FAM)GTPCTYKY[Nle]LAE[Nle][dC]-OH (SEQ ID NO: 9; cysteine pairing not given here)”, the “final purity (method not given)” value was 99%. In the case of “Ac-K(5FAM)GTPCTYKY[Nle]LAE[Nle][dC]-OH (disulfide 5-15; SEQ ID NO: 10)”, the “final purity (method not given)” value is reported as 100%. In the case of “Ac-K(5FAM)GTPCTYKY[Nle]LAE[Nle][dC]-OH (disulfide 5-15; SEQ ID NO: 11)”, the “final purity (method not given)” value is reported as 100%. With “Ac-K(5FAM)GTPCTYKY[Nle]LAE[Nle][dC]-OH (disulfide 5-15; SEQ ID NO: 12)” the “final purity (method not given)” value was 99%. In the case of “Ac-K(5FAM)GTPCTYKY[Nle]LAG[Nle]C-OH (disulfide 5-15; SEQ ID NO: 37)”, the “final purity (method not given)” value is reported as 95%. In the case of “Ac-K(5FAM)GTPCTYKY[Nle]L[Aib]E[Nle]C-OH (disulfide 5-15; SEQ ID NO: 34)”, the “final purity (method not given)” value is reported as 96%. With “Ac-K(5FAM)GTPCTYKY[Nle]L[dA]E[Nle]C-OH (disulfide 5-15; SEQ ID NO: 33)” the “final purity (method not given)” value was 91%. With “Ac-K(5FAM)GTPCTYKY[Nle]VAE[Nle]C-OH (disulfide 5-15; SEQ ID NO: 28)” the “final purity (method not given)” value was 96%. In the case of “Ac-K(5FAM)GTPCTYKY[Nle][Nle]AE[Nle]C-OH (disulfide 5-15; SEQ ID NO: 30)”, the “final purity (method not given)” value is reported as 95%. In the case of “Ac-K(5FAM)GTPCTYK[Nle][Nle]LAE[Nle]C-OH (disulfide 5-15; SEQ ID NO: 25)”, the “final purity (method not given)” value is reported as 96%. With “Ac-K(5FAM)GTPCTYRY[Nle]LAE[Nle]C-OH (disulfide 5-15; SEQ ID NO: 24)” the “final purity (method not given)” value was 98%. In the case of “Ac-K(5FAM)GTPCTY[Orn]Y[Nle]LAE[Nle]C-OH (disulfide 5-15; SEQ ID NO: 23)”, the “final purity (method not given)” value is reported as 90%. With “Ac-K(5FAM)GTPTCYKY[Nle]LAE[Nle]PC-OH (disulfide 6-16; SEQ ID NO: 44)” the “final purity (method not given)” value was 96%. In the case of “Ac-K(5FAM)GTP[dC]TYKY[Nle]LAE[Nle]C-OH (SEQ ID NO: 5; cysteine pairing not given here)”, the “final purity (method not given)” value is reported as 99%. For “Ac-K(5FAM)GTP[dC]TYKY[Nle]LAE[Nle]C-OH (disulfide 5-15; SEQ ID NO: 6)”, the “final purity (method not given)” value was 100%. In the case of “Ac-K(5FAM)GTP[dC]TYKY[Nle]LAE[Nle]C-OH (disulfide 5-15; SEQ ID NO: 7)”, the “final purity (method not given)” value is reported as 98%. For “Ac-K(5FAM)GTP[dC]TYKY[Nle]LAE[Nle]C-OH (disulfide 5-15; SEQ ID NO: 8)”, the “final purity (method not given)” value was 77%. In the case of “Ac-K(5FAM)GTP[dC]TYKY[Nle]LAE[Nle][dC]-OH (SEQ ID NO: 13; cysteine pairing not given here)”, the “final purity (method not given)” value is reported as 99%. For “Ac-K(5FAM)GTP[dC]TYKY[Nle]LAE[Nle][dC]-OH (disulfide 5-15; SEQ ID NO: 14)”, the “final purity (method not given)” value was 96%. In the case of “Ac-K(5FAM)GTP[dC]TYKY[Nle]LAE[Nle][dC]-OH (disulfide 5-15; SEQ ID NO: 15)”, the “final purity (method not given)” value is reported as 98%. For “Ac-K(5FAM)GTWPKHFDKHTFYSILKLGKH-OH (SEQ ID NO: 48)”, the “final purity (method not given)” value was 96%. For “Ac-K(Biotin)GTPCTYKY[Nle]LAE[Nle]C-OH (SEQ ID NO: 45; cysteine pairing not given here)”, the “final purity (method not given)” value was 95%. In the case of “Ac-Lys(5FAM)-Gly-Thr-Pro-c(Cys-Thr-Tyr-Lys-Tyr-Nle-Ahep-Ala-Glu-Nle-Cys)-OH (SEQ ID NO: 31)”, the “final purity (method not given)” value is reported as 100%. For “Ac-Lys(5FAM)-Gly-Thr-Pro-c(Cys-Thr-Tyr-Lys-Tyr-Nle-Aoc-Ala-Glu-Nle-Cys)-OH (SEQ ID NO: 32)”, the “final purity (method not given)” value was 96%. For “Ac-Lys(5FAM)-Gly-Thr-Pro-c(Cys-Thr-Tyr-Lys-Tyr-Nle-Leu-Ala-Glu-Ahep-Cys)-OH (SEQ ID NO: 41)”, the “final purity (method not given)” value was 97%. With “Ac-Lys(5FAM)-Gly-Thr-Pro-c(Cys-Thr-Tyr-Lys-Tyr-Nle-Leu-Ala-Glu-Aoc-Cys)-OH (SEQ ID NO: 42)” the “final purity (method not given)” value was 95%. With “Ac-Lys(5FAM)-Gly-Thr-Pro-c(Cys-cHyp-Tyr-Lys-Tyr-Nle-Leu-Ala-Glu-Nle-Cys)-OH (SEQ ID NO: 18)” the “final purity (method not given)” value was 99%. For “Ac-Lys(5FAM)-Gly-Thr-Pro-c(Cys-tHyp-Tyr-Lys-Tyr-Nle-Leu-Ala-Glu-Nle-Cys)-OH (SEQ ID NO: 19)”, the “final purity (method not given)” value was 95%. With “Ac-lys(5FAM)-Gly-Thr-Pro-c(^DCys-Thr-Tyr-Lys-Thr-Nle-Leu-Ala-Glu-Nle-^DCys)-OH (SEQ ID NO: 16)” the “final purity (method not given)” value was 98%. With “Lys(5FAM)-Gly-Thr-Phe-Phe-Tyr-Gly-Gly-Ser-Arg-Gly-Lys-Arg-Asn-Asn-Phe-Lys-The-Glu-Glu-Tyr-OH (SEQ ID NO: 47)” the “final purity (method not given)” value was 99%. For “PEPTIDE1{[ac].[KBiot].G.T.P.[Cx].T.Y.K.Y.[Nle].L.A.E.[Nle].[Cx]}$PEPTIDE1,PEPTIDE1,6:R3-16:R3$$$V2.0”, the “final purity (method not given)” value was 96%.

HELM strings list residues between dots; [ac] is acetyl, [am] amide, other brackets name non-standard units. Bridge positions count the residues as written; N and C are the ends. Square brackets hold non-standard residues; d marks the D form. * marks the point of attachment. 5FAM = O=C1OC2(c3ccc(O)cc3Oc3cc(O)ccc32)c2ccc(C(=O)*)cc21; Biotin = O=C1N[C@H]2[C@H](CS[C@H]2CCCCC(=O)*)N1; Nle = CCCC[C@H](N)C(=O)O; Orn = NCCC[C@H](N)C(=O)O; Aib = CC(C)(N)C(=O)O
